# Results from paper PMC10183039.
# Protein sequences, listed by entry. Tags and fused reporters are not part of them. Residues count along the entry.
# UniProt P06761, residues 19-654: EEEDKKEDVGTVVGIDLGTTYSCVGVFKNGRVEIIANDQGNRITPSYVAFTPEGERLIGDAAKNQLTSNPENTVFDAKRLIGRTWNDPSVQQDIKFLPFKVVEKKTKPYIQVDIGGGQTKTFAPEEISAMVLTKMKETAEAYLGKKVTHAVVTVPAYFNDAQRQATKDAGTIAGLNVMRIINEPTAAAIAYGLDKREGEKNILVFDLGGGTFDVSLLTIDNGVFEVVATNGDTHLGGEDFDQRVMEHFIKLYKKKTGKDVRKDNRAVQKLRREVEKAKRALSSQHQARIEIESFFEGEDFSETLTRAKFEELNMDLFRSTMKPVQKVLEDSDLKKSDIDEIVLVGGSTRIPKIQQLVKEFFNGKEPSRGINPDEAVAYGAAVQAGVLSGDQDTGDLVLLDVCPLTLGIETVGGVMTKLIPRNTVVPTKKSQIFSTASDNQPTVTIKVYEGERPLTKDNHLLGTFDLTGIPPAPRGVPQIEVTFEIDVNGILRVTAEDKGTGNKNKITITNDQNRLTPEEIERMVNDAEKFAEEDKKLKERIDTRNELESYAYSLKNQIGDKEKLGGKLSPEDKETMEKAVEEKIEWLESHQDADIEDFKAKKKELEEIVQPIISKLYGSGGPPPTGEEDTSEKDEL
# UniProt P29994: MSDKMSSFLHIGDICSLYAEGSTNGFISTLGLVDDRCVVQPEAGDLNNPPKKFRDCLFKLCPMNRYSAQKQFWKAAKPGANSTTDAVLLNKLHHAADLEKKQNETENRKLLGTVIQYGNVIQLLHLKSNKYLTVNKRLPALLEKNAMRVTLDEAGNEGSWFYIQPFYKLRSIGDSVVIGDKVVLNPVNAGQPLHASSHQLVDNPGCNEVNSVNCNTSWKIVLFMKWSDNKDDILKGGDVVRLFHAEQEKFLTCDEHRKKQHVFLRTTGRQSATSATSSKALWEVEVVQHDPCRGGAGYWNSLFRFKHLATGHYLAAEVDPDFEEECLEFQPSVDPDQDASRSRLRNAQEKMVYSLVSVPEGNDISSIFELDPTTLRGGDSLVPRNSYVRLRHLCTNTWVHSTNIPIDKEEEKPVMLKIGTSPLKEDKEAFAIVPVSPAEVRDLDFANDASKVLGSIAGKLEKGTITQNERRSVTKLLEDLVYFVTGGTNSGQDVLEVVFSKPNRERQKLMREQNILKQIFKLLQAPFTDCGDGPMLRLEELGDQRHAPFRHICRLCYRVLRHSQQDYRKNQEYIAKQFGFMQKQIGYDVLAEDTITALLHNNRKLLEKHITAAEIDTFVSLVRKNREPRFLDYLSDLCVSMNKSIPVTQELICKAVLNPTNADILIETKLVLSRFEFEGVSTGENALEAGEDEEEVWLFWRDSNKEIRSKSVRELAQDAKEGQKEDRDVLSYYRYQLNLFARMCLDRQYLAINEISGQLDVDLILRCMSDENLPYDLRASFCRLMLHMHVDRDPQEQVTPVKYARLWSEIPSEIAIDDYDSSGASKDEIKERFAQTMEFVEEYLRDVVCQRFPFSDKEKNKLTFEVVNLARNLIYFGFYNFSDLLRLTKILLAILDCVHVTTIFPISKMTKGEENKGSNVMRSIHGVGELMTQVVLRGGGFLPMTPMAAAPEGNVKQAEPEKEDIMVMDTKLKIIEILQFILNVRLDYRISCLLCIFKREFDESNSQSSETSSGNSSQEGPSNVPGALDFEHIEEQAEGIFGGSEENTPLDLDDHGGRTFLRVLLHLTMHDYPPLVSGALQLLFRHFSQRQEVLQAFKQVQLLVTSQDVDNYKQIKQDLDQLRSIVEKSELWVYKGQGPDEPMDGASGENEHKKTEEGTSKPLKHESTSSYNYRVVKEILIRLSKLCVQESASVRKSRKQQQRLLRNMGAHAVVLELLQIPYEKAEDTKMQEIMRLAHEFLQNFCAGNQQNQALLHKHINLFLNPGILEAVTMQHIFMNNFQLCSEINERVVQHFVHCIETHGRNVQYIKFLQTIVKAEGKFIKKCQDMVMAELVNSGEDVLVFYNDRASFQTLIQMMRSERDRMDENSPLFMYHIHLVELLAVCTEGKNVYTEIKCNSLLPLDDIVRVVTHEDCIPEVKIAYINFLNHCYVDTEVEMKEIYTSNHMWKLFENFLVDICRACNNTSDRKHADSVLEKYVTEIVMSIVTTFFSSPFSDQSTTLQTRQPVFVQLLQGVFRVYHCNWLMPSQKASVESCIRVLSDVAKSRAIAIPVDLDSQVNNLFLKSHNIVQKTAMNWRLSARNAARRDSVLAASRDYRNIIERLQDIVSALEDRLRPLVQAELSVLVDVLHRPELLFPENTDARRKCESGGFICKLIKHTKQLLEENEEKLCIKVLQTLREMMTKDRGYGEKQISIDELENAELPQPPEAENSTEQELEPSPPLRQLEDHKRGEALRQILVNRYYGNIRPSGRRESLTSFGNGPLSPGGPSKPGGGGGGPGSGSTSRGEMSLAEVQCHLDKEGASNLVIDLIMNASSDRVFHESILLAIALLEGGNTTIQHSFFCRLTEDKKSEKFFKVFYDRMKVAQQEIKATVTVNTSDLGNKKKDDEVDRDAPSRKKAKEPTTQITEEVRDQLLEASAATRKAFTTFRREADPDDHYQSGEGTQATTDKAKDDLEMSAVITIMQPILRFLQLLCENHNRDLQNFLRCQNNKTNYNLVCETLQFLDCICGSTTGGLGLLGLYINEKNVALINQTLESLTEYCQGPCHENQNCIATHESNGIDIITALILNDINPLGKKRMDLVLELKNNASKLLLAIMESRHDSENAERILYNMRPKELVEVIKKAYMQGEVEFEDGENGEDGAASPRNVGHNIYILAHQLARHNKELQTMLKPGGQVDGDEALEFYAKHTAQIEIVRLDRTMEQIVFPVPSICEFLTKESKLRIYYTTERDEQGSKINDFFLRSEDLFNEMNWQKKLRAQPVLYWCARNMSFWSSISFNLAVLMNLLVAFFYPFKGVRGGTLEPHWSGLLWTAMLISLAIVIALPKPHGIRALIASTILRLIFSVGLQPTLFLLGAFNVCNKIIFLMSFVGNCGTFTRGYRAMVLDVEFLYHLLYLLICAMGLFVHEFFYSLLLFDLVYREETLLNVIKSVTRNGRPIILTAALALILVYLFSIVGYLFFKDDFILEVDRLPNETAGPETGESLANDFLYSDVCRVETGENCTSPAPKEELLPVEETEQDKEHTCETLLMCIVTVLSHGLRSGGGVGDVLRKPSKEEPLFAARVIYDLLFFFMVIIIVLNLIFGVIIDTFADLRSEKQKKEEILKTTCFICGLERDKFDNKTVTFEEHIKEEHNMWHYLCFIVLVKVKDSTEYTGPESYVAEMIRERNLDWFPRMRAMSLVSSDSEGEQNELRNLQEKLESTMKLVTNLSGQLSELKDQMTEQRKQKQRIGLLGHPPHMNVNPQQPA
# UniProt P08592, residues 18-770: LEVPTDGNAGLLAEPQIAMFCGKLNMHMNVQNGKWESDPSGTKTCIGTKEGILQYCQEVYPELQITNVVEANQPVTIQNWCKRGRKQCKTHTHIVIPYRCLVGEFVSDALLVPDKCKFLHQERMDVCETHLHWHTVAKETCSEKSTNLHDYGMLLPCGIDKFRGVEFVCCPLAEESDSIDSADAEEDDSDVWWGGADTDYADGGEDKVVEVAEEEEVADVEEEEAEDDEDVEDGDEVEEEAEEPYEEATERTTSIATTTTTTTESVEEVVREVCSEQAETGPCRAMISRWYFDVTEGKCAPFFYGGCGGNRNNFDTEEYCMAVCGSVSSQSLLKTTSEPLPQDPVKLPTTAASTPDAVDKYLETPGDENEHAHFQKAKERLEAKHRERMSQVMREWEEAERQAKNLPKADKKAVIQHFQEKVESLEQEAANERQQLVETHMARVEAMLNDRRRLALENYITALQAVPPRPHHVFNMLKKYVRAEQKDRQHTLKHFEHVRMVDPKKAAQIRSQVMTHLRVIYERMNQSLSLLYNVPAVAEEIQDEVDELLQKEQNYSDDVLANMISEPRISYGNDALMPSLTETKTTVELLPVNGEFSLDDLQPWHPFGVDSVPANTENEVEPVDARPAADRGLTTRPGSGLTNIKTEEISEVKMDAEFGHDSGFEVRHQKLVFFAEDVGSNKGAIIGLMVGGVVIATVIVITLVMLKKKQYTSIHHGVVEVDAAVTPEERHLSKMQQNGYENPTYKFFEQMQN
# UniProt P48721, residues 47-679: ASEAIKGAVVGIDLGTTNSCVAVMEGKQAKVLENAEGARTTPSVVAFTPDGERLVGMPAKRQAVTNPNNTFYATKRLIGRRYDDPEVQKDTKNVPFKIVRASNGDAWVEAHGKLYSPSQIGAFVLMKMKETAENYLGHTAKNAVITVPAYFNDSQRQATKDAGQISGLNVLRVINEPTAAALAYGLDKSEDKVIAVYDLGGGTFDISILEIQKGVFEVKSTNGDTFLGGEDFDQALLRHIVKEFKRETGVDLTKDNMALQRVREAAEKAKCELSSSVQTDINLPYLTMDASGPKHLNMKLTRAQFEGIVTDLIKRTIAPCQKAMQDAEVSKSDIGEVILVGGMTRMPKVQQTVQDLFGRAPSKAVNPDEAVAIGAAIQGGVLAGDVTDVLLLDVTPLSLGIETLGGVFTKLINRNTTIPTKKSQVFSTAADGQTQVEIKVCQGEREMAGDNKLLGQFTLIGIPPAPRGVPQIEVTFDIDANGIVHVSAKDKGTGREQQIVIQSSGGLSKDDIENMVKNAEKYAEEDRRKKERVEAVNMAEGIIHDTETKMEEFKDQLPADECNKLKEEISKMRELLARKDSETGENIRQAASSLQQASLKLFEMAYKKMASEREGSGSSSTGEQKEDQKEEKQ
# UniProt Q9Z2L0: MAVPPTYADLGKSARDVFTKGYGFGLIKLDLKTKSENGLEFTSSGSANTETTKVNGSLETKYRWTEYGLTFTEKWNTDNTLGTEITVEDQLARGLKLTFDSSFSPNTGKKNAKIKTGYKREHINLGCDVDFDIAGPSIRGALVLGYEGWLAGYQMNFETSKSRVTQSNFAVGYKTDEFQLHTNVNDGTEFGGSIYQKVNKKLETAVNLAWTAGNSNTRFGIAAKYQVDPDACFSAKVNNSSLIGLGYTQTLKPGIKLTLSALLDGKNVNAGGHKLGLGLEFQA
# No constants are given. Whether binding was seen depends on the method and setting. In cells and extracts the contact can be indirect. Some binding calls cover weakened binding; strength is not graded here.
# Tests used:
# Assay in all cases: co-IP; primary antibody on Protein A/G magnetic beads in PBS with 0.3% Triton X-100; hippocampal tissue of 3-month-old male rats (WT; APP KO or SNCA KO for comparison) homogenized in RIPA lysis buffer; lysate with beads overnight at 4 °C; four washes with PBST; western blotting
# [1] = target: T1, VDAC2 (rat (endogenous in hippocampus)) (UniProt P81155)
# T1 sequence: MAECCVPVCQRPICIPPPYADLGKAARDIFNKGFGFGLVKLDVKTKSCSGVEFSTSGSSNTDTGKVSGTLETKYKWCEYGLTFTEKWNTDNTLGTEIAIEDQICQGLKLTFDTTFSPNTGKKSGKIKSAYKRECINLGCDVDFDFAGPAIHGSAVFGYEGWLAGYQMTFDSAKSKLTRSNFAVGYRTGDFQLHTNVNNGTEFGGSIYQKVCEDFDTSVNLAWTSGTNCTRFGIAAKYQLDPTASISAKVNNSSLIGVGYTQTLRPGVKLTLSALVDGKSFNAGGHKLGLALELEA
# [2] = target: Grp78 (rat (endogenous in hippocampus)) (UniProt P06761)
# [3] = target: IP3R1 (rat (endogenous in hippocampus)) (UniProt P29994)
binding [1],binding [2],binding [3],Substance
binds,binds,–,Full-length APP (from UniProt P08592 18-770)
binds,–,binds,Grp75 (from UniProt P48721 47-679)
–,binds,–,IP3R1 (from UniProt P29994 1-2750) (receptor)
binds,–,–,VDAC1 (from UniProt Q9Z2L0 1-283)
